Measured values taken from publication PMC11519788.
These are yes or no findings as the source states them, for the method shown. Binding seen in cells or lysates may run through a third protein. Some binding calls cover weakened binding; strength is not graded here. Each block holds one substance with its values, some of them ahead of it.

Chains of the proteins cited; added tags and fusions are not shown.
UniProt O43791: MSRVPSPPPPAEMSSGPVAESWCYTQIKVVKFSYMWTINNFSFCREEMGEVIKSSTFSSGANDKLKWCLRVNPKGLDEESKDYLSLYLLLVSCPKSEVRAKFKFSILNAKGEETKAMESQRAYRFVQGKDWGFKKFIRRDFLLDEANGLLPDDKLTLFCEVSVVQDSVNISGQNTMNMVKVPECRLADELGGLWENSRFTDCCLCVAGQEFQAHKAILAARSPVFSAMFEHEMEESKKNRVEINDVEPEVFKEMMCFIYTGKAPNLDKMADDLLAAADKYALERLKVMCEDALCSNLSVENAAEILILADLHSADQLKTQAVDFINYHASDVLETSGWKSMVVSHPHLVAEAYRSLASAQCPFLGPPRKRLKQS
UniProt P40763: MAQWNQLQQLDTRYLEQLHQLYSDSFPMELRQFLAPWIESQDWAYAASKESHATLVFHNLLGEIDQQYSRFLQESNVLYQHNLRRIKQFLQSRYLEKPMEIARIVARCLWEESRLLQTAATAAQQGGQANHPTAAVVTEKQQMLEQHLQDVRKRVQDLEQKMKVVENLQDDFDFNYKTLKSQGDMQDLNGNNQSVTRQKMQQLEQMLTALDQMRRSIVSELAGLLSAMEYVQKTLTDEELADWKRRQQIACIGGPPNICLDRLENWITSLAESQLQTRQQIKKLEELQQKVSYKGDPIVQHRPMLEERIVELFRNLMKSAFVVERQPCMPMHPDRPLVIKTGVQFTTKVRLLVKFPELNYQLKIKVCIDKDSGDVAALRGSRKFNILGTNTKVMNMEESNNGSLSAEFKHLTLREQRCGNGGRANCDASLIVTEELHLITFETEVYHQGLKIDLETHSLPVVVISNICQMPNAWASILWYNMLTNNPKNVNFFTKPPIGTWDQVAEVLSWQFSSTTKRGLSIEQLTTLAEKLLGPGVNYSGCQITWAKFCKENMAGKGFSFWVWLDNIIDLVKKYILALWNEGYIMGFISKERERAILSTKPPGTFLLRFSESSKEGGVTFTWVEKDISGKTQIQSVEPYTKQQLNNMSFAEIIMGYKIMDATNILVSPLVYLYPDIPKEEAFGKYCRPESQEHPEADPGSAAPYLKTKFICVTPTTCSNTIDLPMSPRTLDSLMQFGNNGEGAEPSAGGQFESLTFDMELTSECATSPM

Assays:
[1] = target: FLAG-tagged SPOP, transiently expressed in T24 cells (UniProt O43791); assay: co-IP; T24 cells transiently transfected with FLAG-SPOP; MG132 10 μM for 6 h before harvest; NP-40 lysis buffer; IP with FLAG-tag antibody; blot with STAT3 antibody for endogenous STAT3
[2] = target: FLAG-tagged SPOP (pCMV10-3×FLAG-SPOP), expressed in 293T cells (UniProt O43791); assay: co-IP; 293T cells co-transfected with HA-STAT3 (WT or mutant) and FLAG-SPOP; MG132 10 μM for 6 h before harvest; NP-40 lysis buffer; IP with FLAG-tag antibody at 4℃ overnight, Protein A/G agarose; blot with HA-tag antibody
[3] = target: endogenous STAT3 of T24 cells (human (endogenous in T24)) (UniProt P40763); assay: co-IP; T24 cells, both proteins endogenous; MG132 10 μM for 6 h before harvest; NP-40 lysis buffer; IP with STAT3 antibody; blot with SPOP antibody

- binding [1]: binds
Substance: endogenous STAT3 of T24 cells (from UniProt P40763 1-770)

- binding [2]: binds
Substance: HA-tagged wild-type STAT3 (pCS2-4×HA-STAT3), expressed in 293T cells (from UniProt P40763 1-770)

- binding [3]: binds
Substance: endogenous SPOP of T24 cells (from UniProt O43791 1-374)
